Measurements: patent publication US6960572B2, “Indolinones and uses thereof” (Ariad Pharmaceuticals, Inc., priority 2001, dated 2005)
For at least one compound, name, drawing or mass did not settle the structure.

Conditions: TSK-Gel HA 1000 HPLC column; linear gradient 10 mM to 500 mM sodium phosphate, 0.15 N NaCl, pH 6.8; corrected using two reference compounds

CN(C)[C@@H]1C(O)=C(C(N)=O)C(=O)[C@@]2(O)C(O)=C3C(=O)c4c(O)cccc4[C@@](C)(O)[C@H]3C[C@@H]12 [tetracycline]
K′ value (corrected hydroxyapatite retention, K=(retention time-void time)/void): 2.0
